Results are given in words; binding and its absence hold for the method and conditions named. Binding seen in cells or lysates may run through a third protein. A result given as binding can be weak or reduced; the word gives no strength.
Experiments:
Assay in all cases: co-IP; HEK293T cells transfected with the indicated plasmids; NP40 lysis buffer (20 mM Tris–HCl pH 7.4, 150 mM NaCl, 1 mM EDTA, 1% NP40); indicated antibody and protein G magnetic beads, 4 °C, 4 h or overnight; washed with lysis buffer with 500 mM NaCl; western blotting; in some panels with or without overexpressed ANGPTL3
[1] = target: IL1R1 C-terminal region (truncation mutant) (human) (UniProt P14778)
[2] = target: IL1RAP N-terminal region (truncation mutant) (human) (UniProt Q9NPH3)
[3] = target: IL1RAP C-terminal region (truncation mutant) (human) (UniProt Q9NPH3)

Sequences of proteins named here, by UniProt entry; tags and fusion partners are left off. A change or cut given only in a name is not applied to a line headed by its entry.
UniProt P14778: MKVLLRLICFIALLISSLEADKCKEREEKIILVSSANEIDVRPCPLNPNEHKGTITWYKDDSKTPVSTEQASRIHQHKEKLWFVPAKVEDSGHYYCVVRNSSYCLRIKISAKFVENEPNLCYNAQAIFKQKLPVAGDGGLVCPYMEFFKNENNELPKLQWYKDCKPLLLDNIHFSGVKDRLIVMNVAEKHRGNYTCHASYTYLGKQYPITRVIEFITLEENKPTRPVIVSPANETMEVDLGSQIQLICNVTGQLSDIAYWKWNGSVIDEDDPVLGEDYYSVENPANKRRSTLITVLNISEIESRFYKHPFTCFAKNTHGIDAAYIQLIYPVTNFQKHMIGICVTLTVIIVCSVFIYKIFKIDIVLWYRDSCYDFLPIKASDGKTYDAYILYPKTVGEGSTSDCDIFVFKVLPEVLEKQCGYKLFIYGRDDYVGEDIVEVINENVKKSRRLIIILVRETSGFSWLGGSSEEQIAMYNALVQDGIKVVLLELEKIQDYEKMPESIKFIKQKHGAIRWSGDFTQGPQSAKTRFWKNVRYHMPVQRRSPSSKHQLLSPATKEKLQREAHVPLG
UniProt Q9NPH3: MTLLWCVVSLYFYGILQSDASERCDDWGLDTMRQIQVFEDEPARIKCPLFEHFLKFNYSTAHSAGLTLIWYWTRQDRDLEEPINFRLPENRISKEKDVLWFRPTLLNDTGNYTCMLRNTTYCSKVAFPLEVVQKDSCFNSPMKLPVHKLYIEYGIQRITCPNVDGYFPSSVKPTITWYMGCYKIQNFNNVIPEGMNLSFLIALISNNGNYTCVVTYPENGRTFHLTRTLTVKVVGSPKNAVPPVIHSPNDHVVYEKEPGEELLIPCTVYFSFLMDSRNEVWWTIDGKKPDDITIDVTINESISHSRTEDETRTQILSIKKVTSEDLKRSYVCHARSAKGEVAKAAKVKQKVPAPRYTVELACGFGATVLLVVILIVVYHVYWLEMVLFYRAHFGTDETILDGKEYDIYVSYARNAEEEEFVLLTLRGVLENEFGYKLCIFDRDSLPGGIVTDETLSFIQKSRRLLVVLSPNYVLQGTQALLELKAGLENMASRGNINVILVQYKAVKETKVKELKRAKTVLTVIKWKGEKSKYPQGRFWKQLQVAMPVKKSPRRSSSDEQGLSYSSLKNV

Measured: binding

B1: Angiopoietin like 3 (ANGPTL3), full-length, overexpressed (protein, UniProt Q9Y5C1 17-460)
chain: SRIDQDNSSFDSLSPEPKSRFAMLDDVKILANGLLQLGHGLKDFVHKTKGQINDIFQKLNIFDQSFYDLSLQTSEIKEEEKELRRTTYKLQVKNEEVKNMSLELNSKLESLLEEKILLQQKVKYLEEQLTNLIQNQPETPEHPEVTSLKTFVEKQDNSIKDLLQTVEDQYKQLNQQHSQIKEIENQLRRTSIQEPTEISLSSKPRAPRTTPFLQLNEIRNVKHDGIPAECTTIYNRGEHTSGMYAIRPSNSQVFHVYCDVISGSPWTLIQHRIDGSQNFNETWENYKYGFGRLDGEFWLGLEKIYSIVKQSNYVLRIELEDWKDNKHYIEYSFYLGNHETNYTLHLVAITGNVPNAIPENKDLVFSTWDHKAKGHFNCPEGYSGGWWWHDECGENNLNGKYNKPRAKSKPERRRGLSWKSQNGRLYSIKSTKMLIHPTDSESFE
binds: all assays above

— paper PMC11149415
